Assay results published in the supplement of paper PMC9015667.
Counter-ions that a name gives are not always drawn. The list shows a part of the results. Many values rest on one well or one pass, so single values are uncertain.

Assays:
Test in all cases: reduction in cell viability relative to untreated/vehicle; higher = more growth inhibition
Settings in all cases: 200 nM; 72 h
M229P = tested on: M229P (parental melanoma line)
M229R = tested on: M229R (matched melanoma line resistant to BRAF inhibitors)
M238P = tested on: M238P (parental melanoma line)
M238R = tested on: M238R (matched melanoma line resistant to BRAF inhibitors)
M249P = tested on: M249P (parental melanoma line)
M249R = tested on: M249R (matched melanoma line resistant to BRAF inhibitors)
UACC62P = tested on: UACC62P (parental melanoma line)
UACC62R = tested on: UACC62R (matched melanoma line resistant to BRAF inhibitors)

Measured: reduction in cell viability

Cc1cnc(NC(=O)Nc2cc(Br)c(C)cc2OC[C@@H]2CNCCO2)cn1 [Rabusertib]
46.3%: M229R
27%: UACC62R
9.9%: M238P
40%: M249R
< 0%: all other assays above

CC1(C)Cc2c(sc(NC(=S)NC(=O)c3ccccc3)c2C(=O)O)CO1
< 0%: all assays above

Cc1cn[nH]c1 [Fomepizole]
< 0%: all assays above

COc1cc2c(cc1Cc1cccc(Cl)c1F)c(=O)c(C(=O)O)cn2[C@H](CO)C(C)C [Elvitegravir]
< 0%: all assays above

O=C(Nc1cccc2c(=O)cc(-c3nnn[nH]3)oc12)c1ccc(OCCCCc2ccccc2)cc1 [Pranlukast]
< 0%: all assays above

CCOC(=O)c1ccc(C#Cc2ccc3c(c2)C(C)(C)CCS3)nc1 [Tazarotene]
2.03%: M229R
11.9%: UACC62P
< 0%: all other assays above

CC(C)OC(=O)[C@H](C)N[P@](=O)(OC[C@H]1O[C@@H](n2ccc(=O)[nH]c2=O)[C@](C)(F)[C@@H]1O)Oc1ccccc1 [Sofosbuvir]
< 0%: all assays above

As a working copy, two of the compounds above.
CC1(C)Cc2c(sc(NC(=S)NC(=O)c3ccccc3)c2C(=O)O)CO1
< 0%: all assays above

Cc1cn[nH]c1 [Fomepizole]
< 0%: all assays above

The list continues:

Cn1c(=O)c(Oc2ccc(F)cc2F)cc2cnc(NC3CCOCC3)nc21
< 0%: all assays above

O=C(c1ccc(F)c(F)c1Nc1ccc(I)cc1F)N1CC(O)([C@@H]2CCCCN2)C1
33%: M238P
80.1%: M249R
61.9%: UACC62P
< 0%: M229R | M238R
82%: M249P
43.7%: UACC62R
35.2%: M229P

NCCCC(O)(P(=O)(O)O)P(=O)(O)O [Alendronate]
5.31%: UACC62P
< 0%: all other assays above

Cn1c(Nc2ccc(C(F)(F)F)cc2)nc2cc(Oc3ccnc(-c4ncc(C(F)(F)F)[nH]4)c3)ccc21
39.8%: M229P
57.2%: M249R
45.1%: M238P
9.6%: M238R
54.5%: M249P
< 0%: M229R
48%: UACC62R
78%: UACC62P

O=C1NC(=O)C(=Cc2ccc(-c3ccc(F)cc3)o2)S1 (stereo in doubt)
2.96%: UACC62P
< 0%: all other assays above

CC1(C)[C@@H](O)CC[C@]2(C)[C@H]3C(=O)C=C4[C@@H]5C[C@@](C)(C(=O)O)CC[C@]5(C)CC[C@@]4(C)[C@]3(C)CC[C@@H]12 [Enoxolone]
5.86%: UACC62P
< 0%: all other assays above

Cc1c(CN2CCN(S(C)(=O)=O)CC2)sc2c(N3CCOCC3)nc(-c3cnc(N)nc3)nc12
15.5%: M229P
57.4%: M238P
27.8%: M249R
22.2%: M249P
44.1%: M238R
42.2%: UACC62R
24.2%: M229R
42.6%: UACC62P

Cc1cc([C@@H](C)Nc2ccccc2C(=O)O)c2nc(N3CCOCC3)cc(=O)n2c1
0.18%: M238P
6.03%: UACC62P
18.9%: M238R
5.17%: M249P
< 0%: all other assays above

CC1(C)[C@@H](O[C@H]2O[C@H](C(=O)O)[C@@H](O)[C@H](O)[C@H]2O[C@@H]2O[C@H](C(=O)O)[C@@H](O)[C@H](O)[C@H]2O)CC[C@]2(C)[C@H]3C(=O)C=C4[C@@H]5C[C@@](C)(C(=O)O)CC[C@]5(C)CC[C@@]4(C)[C@]3(C)CC[C@@H]12 [Glycyrrhizin]
< 0%: all assays above

CC1(C)CCC2=C(O1)c1ccccc1C(=O)C2=O [beta-Lapachone]
4.57%: M249R
12%: UACC62P
< 0%: all other assays above

CC(C)(C)NC(=O)[C@H]1CC[C@H]2[C@@H]3CC[C@H]4NC(=O)C=C[C@]4(C)[C@H]3CC[C@]12C [Finasteride]
< 0%: all assays above

CN(C)/[N+]([O-])=N/Oc1cc(ON[N+](=O)N2CCN(C(=O)c3cc(Cc4n[nH]c(=O)c5ccccc45)ccc3F)CC2)c([N+](=O)[O-])cc1[N+](=O)[O-]
< 0%: all assays above

CCC(NC(C)C)C(O)c1ccc(O)c2[nH]c(=O)ccc12 (stereo not drawn) [Procaterol]
2.62%: M249R
< 0%: all other assays above

Cc1ccc([C@@H]2O[C@H](CO)[C@@H](O)[C@H](O)[C@H]2O)cc1Cc1ccc(-c2ccc(F)cc2)s1 [Canagliflozin]
< 0%: all assays above

Nc1ccn([C@@H]2O[C@H](CO)[C@@H](O)[C@@H]2O)c(=O)n1 [Cytarabine]
14.9%: M229R
17.5%: M249R
11%: M249P
83.4%: UACC62R
51.7%: M238P
26.4%: M238R
< 0%: M229P | UACC62P

CCN1CCN(c2ccc(Nc3cc(N(C)C(=O)Nc4c(Cl)c(OC)cc(OC)c4Cl)ncn3)cc2)CC1
< 0%: all assays above

CC1=C(C(=O)O)N2C(=O)[C@@H](NC(=O)[C@H](N)C3=CCC=CC3)[C@H]2SC1 [Cephradine]
< 0%: all assays above

CN(C)CCOC(c1ccccc1)c1ccccc1 [Diphenhydramine hydrochloride]
< 0%: all assays above

O=C(Nc1nc2cccc(-c3ccc(CN4CCS(=O)(=O)CC4)cc3)n2n1)C1CC1
< 0%: all assays above

COCCOc1ccc2c(c1)ncn2-c1ccc2cccc(N3CCC(N)CC3)c2n1
< 0%: all assays above

Clc1ccc(C(Cn2ccnc2)OCc2c(Cl)cccc2Cl)c(Cl)c1 (stereo not drawn) [Isoconazole nitrate]
< 0%: all assays above

CCCOc1ccc(C(=O)OCCN(CC)CC)cc1N [Proparacaine]
3.07%: UACC62P
< 0%: all other assays above

C[C@H]1C[C@@H]2[C@H]([C@@H](O)C[C@@]3(C)[C@H]2CC[C@]3(O)C(=O)CO)[C@@]2(C)C=CC(=O)C=C12 [Methylprednisolone]
< 0%: all assays above

CCn1cc(C(=O)O)c(=O)c2cc(F)c(N3CCNCC3)cc21 [Norfloxacin]
< 0%: all assays above

Oc1cc(-c2nc(-c3ccccc3)[nH]c2-c2ccncc2)ccc1Cl
12.6%: M249P
45.1%: UACC62P
9.93%: M229P
24.1%: M238P
< 0%: all other assays above

O=C(N[C@H](CO)[C@H](O)c1ccc([N+](=O)[O-])cc1)C(Cl)Cl [Chloramphenicol]
6.97%: M249R
12.9%: M229P
< 0%: all other assays above

FC(F)(F)c1ccc(Nc2nc3ccc(Oc4ccnc(-c5ncc(C(F)(F)F)[nH]5)c4)cc3[nH]2)cc1 [RAF-265 derivative]
< 0%: all assays above

O=c1cc(-c2ccc(O)c(O)c2)oc2cc(O)cc(O)c12 [Luteolin]
< 0%: all assays above

OC(c1cc(C(F)(F)F)nc2c(C(F)(F)F)cccc12)C1CCCCN1 (stereo not drawn) [Mefloquine]
4.48%: M238P
< 0%: all other assays above
